{
  "source": "patent US20120329834A1",
  "about": "“COMPOUNDS FOR THE TREATMENT OF MITOCHONDRIAL DISEASES” (CENTRE NATIONAL DE LA RECHERCHE SCIENTIFIQUE, priority 2009, published 2012)",
  "tested_on": "ATP synthase yeast mutants MR14 (NARP T8993G) and MC6 (fmc1Δ)",
  "assay": "Filter growth-halo test: restoration of respiratory growth of mutant yeasts on nonfermentable medium",
  "type": "cell-based",
  "set-up": "key: +: the size and the density of said halo allow defining a qualitative value for activity; ++: the size and the density of said halo allow defining a qualitative value for activity; +++: the size and the density of said halo allow defining a qualitative value for activity",
  "conditions": "2.5 μl/filter; compounds (Ia) 10 mg/ml, compounds A, B, C, D 5 mg/ml in DMSO; YPG medium; 35° C. MR14 or 36° C. MC6",
  "text": "The ATP6 yeast mutants grow very slowly from a nonfermentable carbon source due to a dysfunction of the ATP synthase. These yeast mutants are therefore used to identify molecules capable of correcting the effects of the mutation by restoring either ATP synthase function, or ATP production by the mitochondria allowing the yeasts to grow on nonfermentable medium.\nMutant strains used in this experiment are: • MC6 (fmc1Δ) (Lefebvre-Legendre L. et al., J. Biol. Chem., 2001, March 2, 276 (9): 6789-96)\nGenotype: MC6: Mat α, ade2, leu2, ura3, trp1, his3, fmc1::HIS3 • MR14 (NARP T8993G) which may be obtained according to International PCT Application WO 2007/125225.\nThe principle of the activity test is the following:\nStep 1: the mutant yeast is cultured in medium containing glucose (YPAD medium). […]\nIn the morning, the optical density (OD) of the culture is measured; the culture is diluted in liquid YPAD medium (50 or 100 μl in 4 ml of medium if the broth is saturated).\nAfter 4-5 h, OD of the culture is measured; the culture is diluted in YPG medium until the OD is 0.2. […]\nActivity of the compounds is detected when mutant yeasts grow around the filters forming a growth halo; the size and the density of said halo allow defining a qualitative value for activity. […]",
  "data": [
    {"smiles": "CC(C)(C)CC(C)(C)c1ccc(OCCOCC[N+](C)(C)Cc2ccccc2)cc1", "note": "[B- Benzethonium, Benzethonium chloride]", "values": [
      {"measurement": "activity (growth halo around the filter)", "result": "++"}
    ]}
  ]
}
